PubChem BioAssay AID1117269 | University of Michigan – 2014

Test: 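Kinome-wide knockdown screen for regulators of TGF-beta reporter output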 (primary screen)
Cell system: human A549 lung cancer and 1833 breast cancer (MDA-MB-231-derived) cell lines carrying a stable BTR luciferase reporter
Reagents: siRNA pool against human genes
Duration: 72 h after transfection, then 1 h TGF-beta before the read
Treatment: TGF-beta 10 ng/mL added one hour before luciferin and read-out
Read-out: 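Live-cell BTR luciferase signal at 72 h after transfection and 1 h of TGF-beta at 10 ng/mL, fold versus scrambled siRNA, triplicate mean for each line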
Direction: fold over scrambled siRNA, A549 and fold over scrambled siRNA, 1833: higher = more reporter light, weaker TGF-beta receptor signalling
Hit rule: 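Hit in either line counts as active; per-line hits lie above an upper limit from quartiles of averaged log fold values, in plate and screen-wide analyses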
Calls: active = hit in at least one line; inactive = hit in neither line
Here is a random part of 714 reagents tested. 49 of them (6.9%) were called active. 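Active means a hit in at least one line; per-line hit columns show which; some siRNA pools appear more than once.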 Reagent sequences are not shown. Not stated in the record: the amount of reagent.

fold over scrambled siRNA, A549 | fold over scrambled siRNA, 1833 | hit in A549 | hit in 1833 | Call | target
1 | 1.48 | not a hit in A549 | not a hit in 1833 | inactive | PRKCI (protein kinase C iota)
1.81 | 4.28 | not a hit in A549 | not a hit in 1833 | inactive | GRK3 (G protein-coupled receptor kinase 3)
1.81 | 6.23 | not a hit in A549 | not a hit in 1833 | inactive | PI4KA (phosphatidylinositol 4-kinase alpha)
1.56 | 1.22 | not a hit in A549 | not a hit in 1833 | inactive | CLK4 (CDC like kinase 4)
0.472 | 3.27 | not a hit in A549 | not a hit in 1833 | inactive | LCK (LCK proto-oncogene, Src family tyrosine kinase)
3.43 | 6.97 | not a hit in A549 | not a hit in 1833 | inactive | ABL2 (ABL proto-oncogene 2, non-receptor tyrosine kinase)
0.887 | 1.29 | not a hit in A549 | not a hit in 1833 | inactive | PIM1 (Pim-1 proto-oncogene, serine/threonine kinase)
1.11 | 1.76 | not a hit in A549 | not a hit in 1833 | inactive | FLT3 (fms related receptor tyrosine kinase 3)
0.627 | 2.26 | not a hit in A549 | not a hit in 1833 | inactive | NUAK1 (NUAK family kinase 1)
1.87 | 2.11 | not a hit in A549 | not a hit in 1833 | inactive | CMPK1 (cytidine/uridine monophosphate kinase 1)
0.762 | 1.48 | not a hit in A549 | not a hit in 1833 | inactive | MAP2K1 (mitogen-activated protein kinase kinase 1)
1.43 | 2.38 | not a hit in A549 | not a hit in 1833 | inactive | PSTK (phosphoseryl-tRNA kinase)
4.05 | 4.66 | not a hit in A549 | not a hit in 1833 | inactive | STK38L (serine/threonine kinase 38 like)
3.05 | 12.3 | not a hit in A549 | hit in 1833 | – | ITPKB (inositol-trisphosphate 3-kinase B)
2.87 | 2.47 | not a hit in A549 | not a hit in 1833 | inactive | PRAG1 (PEAK1 related, kinase-activating pseudokinase 1)
2.75 | 0.519 | not a hit in A549 | not a hit in 1833 | inactive | MAP3K6 (mitogen-activated protein kinase kinase kinase 6)
1.19 | 3.74 | not a hit in A549 | not a hit in 1833 | inactive | BRD3 (bromodomain containing 3)
1.5 | 3.88 | not a hit in A549 | not a hit in 1833 | inactive | CILK1 (ciliogenesis associated kinase 1)
0.667 | 2.89 | not a hit in A549 | not a hit in 1833 | inactive | IKBKB (inhibitor of nuclear factor kappa B kinase subunit beta)
1.96 | 2.52 | not a hit in A549 | not a hit in 1833 | inactive | TSSK4 (testis specific serine kinase 4)
2.75 | 3.37 | not a hit in A549 | not a hit in 1833 | inactive | DAPK2 (death associated protein kinase 2)
0.571 | 2.38 | not a hit in A549 | not a hit in 1833 | inactive | CKM (creatine kinase, M-type)
1.12 | 1.64 | not a hit in A549 | not a hit in 1833 | inactive | MAPK11 (mitogen-activated protein kinase 11)

Reformatted: results already given
ITPKB (inositol-trisphosphate 3-kinase B) — fold over scrambled siRNA, A549 = 3.05; fold over scrambled siRNA, 1833 = 12.3; hit in A549 = not a hit in A549; hit in 1833 = hit in 1833
PRAG1 (PEAK1 related, kinase-activating pseudokinase 1) — fold over scrambled siRNA, A549 = 2.87; fold over scrambled siRNA, 1833 = 2.47; hit in A549 = not a hit in A549; hit in 1833 = not a hit in 1833; Call = inactive
